Reference: article PMC3290555
No constants are given. Whether binding was seen depends on the method and setting.

What was measured:
[1] = molecular target: mouse CNPase catalytic domain (residues 159-378) (mouse) (UniProt P16330); test: SAXS; synchrotron small-angle X-ray scattering in solution; Bis-Tris pH 5.5 buffers, 100-300 mM NaCl, with and without 50 mM sodium citrate; both purified
[2] = molecular target: mouse CNPase catalytic domain (residues 159-378) (mouse) (UniProt P16330); test: SEC; size exclusion chromatography of the samples used for SAXS; single symmetric peaks; both purified
[3] = molecular target: N-cat (mouse CNPase residues 138-378) (mouse) (UniProt P16330); test: as above
[4] = molecular target: cat-C (mouse CNPase residues 159-400) (mouse) (UniProt P16330); test: as above
[5] = molecular target: N-cat-C (mouse CNPase residues 138-400) (mouse) (UniProt P16330); test: as above

B1: mouse CNPase catalytic domain (residues 159-378) (domain or fragment, UniProt P16330-2 159-378)
chain: GLEKDFLPLYFGWFLTKKSSETLRKAGQVFLEELGNHKAFKKELRHFISGDEPKEKLELVSYFGKRPPGVLHCTTKFCDYGKAAGAEEYAQQEVVKRSYGKAFKLSISALFVTPKTAGAQVVLTDQELQLWPSDLDKPSASEGLPPGSRAHVTLGCAADVQPVQTGLDLLDILQQVKGGSQGEAVGELPRGKLYSLGKGRWMLSLTKKMEVKAIFTGYYG
- binding [1]: no binding (tested: 5–15 mg/ml; 1–10 mg/ml; 3–15 mg/ml)
- binding [2]: no binding

B2: N-cat (mouse CNPase residues 138-378) (domain or fragment, UniProt P16330-2 138-378)
chain: AQLKEKNQWQLSADDLKKLKPGLEKDFLPLYFGWFLTKKSSETLRKAGQVFLEELGNHKAFKKELRHFISGDEPKEKLELVSYFGKRPPGVLHCTTKFCDYGKAAGAEEYAQQEVVKRSYGKAFKLSISALFVTPKTAGAQVVLTDQELQLWPSDLDKPSASEGLPPGSRAHVTLGCAADVQPVQTGLDLLDILQQVKGGSQGEAVGELPRGKLYSLGKGRWMLSLTKKMEVKAIFTGYYG
- binding [3]: no binding

B3: cat-C (mouse CNPase residues 159-400) (domain or fragment, UniProt P16330-2 159-400)
chain: GLEKDFLPLYFGWFLTKKSSETLRKAGQVFLEELGNHKAFKKELRHFISGDEPKEKLELVSYFGKRPPGVLHCTTKFCDYGKAAGAEEYAQQEVVKRSYGKAFKLSISALFVTPKTAGAQVVLTDQELQLWPSDLDKPSASEGLPPGSRAHVTLGCAADVQPVQTGLDLLDILQQVKGGSQGEAVGELPRGKLYSLGKGRWMLSLTKKMEVKAIFTGYYGKGKPVPIHGSRKGGAMQICTII
- binding [4]: no binding

B4: N-cat-C (mouse CNPase residues 138-400) (domain or fragment, UniProt P16330-2 138-400)
chain: AQLKEKNQWQLSADDLKKLKPGLEKDFLPLYFGWFLTKKSSETLRKAGQVFLEELGNHKAFKKELRHFISGDEPKEKLELVSYFGKRPPGVLHCTTKFCDYGKAAGAEEYAQQEVVKRSYGKAFKLSISALFVTPKTAGAQVVLTDQELQLWPSDLDKPSASEGLPPGSRAHVTLGCAADVQPVQTGLDLLDILQQVKGGSQGEAVGELPRGKLYSLGKGRWMLSLTKKMEVKAIFTGYYGKGKPVPIHGSRKGGAMQICTII
- binding [5]: no binding
